# Source: the supplement of paper PMC4635364
# Counter-ions that a name gives are not always drawn. Some of the results follow. Repeats in this data set agree poorly, so a single value says little.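 Human fetal ventral-midbrain neural progenitor line ReNCell VM, differentiated without mitogens. Images stained for doublecortin (early neurons) or tyrosine hydroxylase (dopaminergic neurons) were scored by blinded raters against untreated wells (0 = no change). Repeats and both raters were averaged, and compounds averaging 2 or higher were picked as hits for retesting.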
# Tests used:
# [1] = tested on: ReNCell VM; experiment: neuronal differentiation score (DCX+ cell fraction vs untreated, manual image score) (score (-3 to 3)); higher = more neuronal differentiation; conditions: 2 uM, 2 weeks
# [2] = tested on: ReNCell VM; experiment: dopaminergic neuron differentiation score (TH+ cell fraction vs untreated, manual image score) (score (0 to 3)); higher = more TH+ dopaminergic neuron differentiation; conditions: 2 uM, 4 weeks, BDNF 10 ng/ml + GDNF 10 ng/ml
compound,measurement,setting,value
CN1C[C@H](C(=O)N[C@]2(C)O[C@@]3(O)[C@@H]4CCCN4C(=O)[C@H](Cc4ccccc4)N3C2=O)C[C@@H]2c3cccc4[nH]cc(c34)C[C@H]21 [Dihydroergotamine mesylate],neuronal differentiation score,[1]; library: Tocriscreen,inactive: 0
same,dopaminergic neuron differentiation score,[2]; library: Tocriscreen,inactive: 0
Clc1cc(I)cc(Cl)c1NC1=NCCN1 [p-Iodoclonidine hydrochloride],neuronal differentiation score,[1]; library: LOPAC,inactive: 0
same,dopaminergic neuron differentiation score,[2]; library: LOPAC,inactive: 0
CN(C)C(=O)Oc1cccc([N+](C)(C)C)c1,neuronal differentiation score,[1]; library: Spectrum,inactive: 0
same,dopaminergic neuron differentiation score,[2]; library: Spectrum,inactive: 1
Oc1ccc2c3c1O[C@H]1[C@@H](O)CC[C@@]4(O)[C@@H](C2)N(CC2CCC2)CC[C@]314,neuronal differentiation score,[1]; library: Spectrum,inactive: 0
same,dopaminergic neuron differentiation score,[2]; library: Spectrum,inactive: 0
C/C=C(/C)C(=O)O[C@H]1CC[C@@]2(C)[C@@H]3CC[C@H]4[C@]5(O)C[C@H](O)[C@@]6(O)[C@@H](CN7C[C@@H](C)CC[C@H]7[C@@]6(C)O)[C@]5(O)C[C@]42O[C@]13O,neuronal differentiation score,[1]; library: Spectrum,inactive: 0
same,dopaminergic neuron differentiation score,[2]; library: Spectrum,inactive: 0
"CC(=O)OCC1=C(C(=O)O)N2C(=O)[C@@H](N)[C@H]2SC1 [Cephalosporanic acid, 7-amino]",neuronal differentiation score,[1]; library: Prestwick,inactive: 0
same,dopaminergic neuron differentiation score,[2]; library: Prestwick,inactive: 0
CO[C@H](C)[C@](O)(C(=O)OCC1=CCN2CC[C@H](O)[C@@H]12)C(C)C [Heliotrine],neuronal differentiation score,[1]; library: Phytochemical,inactive: 0
same,dopaminergic neuron differentiation score,[2]; library: Phytochemical,inactive: 0
C1CCc2nnnn2CC1,neuronal differentiation score,[1]; library: Spectrum,inactive: 0
same,dopaminergic neuron differentiation score,[2]; library: Spectrum,inactive: 0
C/C=C1/C[N+]2(C)CCC34C(=C(C=O)[C@H]1C[C@@H]32)Nc1ccccc14 (some centres undefined) [Fluorocurarine chloride],neuronal differentiation score,[1]; library: Phytochemical,inactive: 0
same,dopaminergic neuron differentiation score,[2]; library: Phytochemical,inactive: 0
O=C1NC(=O)c2c1c1c3ccccc3[nH]c1c1[nH]c3ccccc3c21 [Arcyriaflavin A],neuronal differentiation score,[1]; library: Tocriscreen,inactive: 0
same,dopaminergic neuron differentiation score,[2]; library: Tocriscreen,inactive: 0
C=CCN1CC[C@]23c4c5ccc(O)c4O[C@H]2/C(=N/N=C2\CC[C@@]4(O)[C@H]6Cc7ccc(O)c8c7[C@@]4(CCN6CC=C)[C@H]2O8)CC[C@@]3(O)[C@H]1C5 [Naloxonazine dihydrochloride],neuronal differentiation score,[1]; library: LOPAC,inactive: 0
same,dopaminergic neuron differentiation score,[2]; library: LOPAC,inactive: 0
CC[N+](CC)(CCCNC1=CC(=O)C(NCCC[N+](CC)(CC)Cc2ccccc2)=CC1=O)Cc1ccccc1 [Benzoquinonium dibromide],neuronal differentiation score,[1]; library: Tocriscreen,inactive: 0
same,dopaminergic neuron differentiation score,[2]; library: Tocriscreen,inactive: 0
O[C@H]1[C@H](O)[C@@H](O)CN2CC[C@H](O)[C@H]12 [Castanospermine],neuronal differentiation score,[1]; library: Tocriscreen,inactive: 0
same,dopaminergic neuron differentiation score,[2]; library: Tocriscreen,inactive: 0
NCC(CP(=O)(O)O)c1ccc(Cl)cc1 (centres undefined) [Phaclofen],neuronal differentiation score,[1]; library: LOPAC,inactive: 0
same,dopaminergic neuron differentiation score,[2]; library: LOPAC,inactive: 0
CC[C@H]1[C@@H]2C[C@H]3[C@@H]4N(C)c5ccccc5[C@]45C[C@@H]([C@@H]2[C@H]5O)N3[C@@H]1O [Ajmaline],neuronal differentiation score,[1]; library: Phytochemical,inactive: 0
same,dopaminergic neuron differentiation score,[2]; library: Phytochemical,inactive: 0
CC(C)NC(C)Cc1ccc(I)cc1 (centres undefined) [Iofetamine hydrochloride],neuronal differentiation score,[1]; library: LOPAC,inactive: 0
same,dopaminergic neuron differentiation score,[2]; library: LOPAC,inactive: 0
CN1c2ccccc2C(NCCCCCCC(=O)O)c2ccc(Cl)cc2S1(=O)=O (centres undefined) [Tianeptine],neuronal differentiation score,[1]; library: Tocriscreen,inactive: 0
same,dopaminergic neuron differentiation score,[2]; library: Tocriscreen,inactive: 0
CS(=N)(=O)CC[C@H](N)C(=O)O (some centres undefined) [Methionine sulfoximine (L)],neuronal differentiation score,[1]; library: Phytochemical,inactive: 0
same,dopaminergic neuron differentiation score,[2]; library: Phytochemical,inactive: 0
C[N+](C)(C)CC#CCN1CCCC1=O [Oxotremorine M],neuronal differentiation score,[1]; library: Tocriscreen,inactive: 0
same,dopaminergic neuron differentiation score,[2]; library: Tocriscreen,inactive: 0
CC(C)(C)NCC(O)c1ccccc1Cl (centres undefined) [Tulobuterol],neuronal differentiation score,[1]; library: Prestwick,inactive: 0
same,dopaminergic neuron differentiation score,[2]; library: Prestwick,inactive: 0
c1ccc2nc(N3CCNCC3)ccc2c1 [Quipazine dimaleate salt],neuronal differentiation score,[1]; library: Prestwick,inactive: 0
same,dopaminergic neuron differentiation score,[2]; library: Prestwick,inactive: 0
CCN(C(C)=O)c1cccc(-c2ccnc3c(C#N)cnn23)c1,neuronal differentiation score,[1]; library: Spectrum,inactive: 0
same,dopaminergic neuron differentiation score,[2]; library: Spectrum,inactive: 0
C=C[C@H]1CN2CC[C@H]1C[C@H]2[C@H](O)c1ccnc2ccccc12,neuronal differentiation score,[1]; library: Spectrum,inactive: 0
same,dopaminergic neuron differentiation score,[2]; library: Spectrum,inactive: 0
CC(C)=CCC[C@]1(C)C=Cc2c(O)c3c(c(CC=C(C)C)c2O1)O[C@]12C(=C[C@@H]4C[C@H]1C(C)(C)O[C@@]2(C/C=C(/C)C(=O)O)C4=O)C3=O,neuronal differentiation score,[1]; library: Spectrum,inactive: 0
same,dopaminergic neuron differentiation score,[2]; library: Spectrum,inactive: 0
C[N+]1(C)CCc2cc3c(cc2[C@H]1[C@@H]1OC(=O)c2c1ccc1c2OCO1)OCO3 [(-)-Bicuculline methochloride],neuronal differentiation score,[1]; library: Tocriscreen,inactive: 0
same,dopaminergic neuron differentiation score,[2]; library: Tocriscreen,inactive: 0
O=C1Nc2cc(Cl)c(Cl)cc2N2CCNCC12 (centres undefined),neuronal differentiation score,[1]; library: Tocriscreen,inactive: 0
same,dopaminergic neuron differentiation score,[2]; library: Tocriscreen,inactive: 0
COc1ccc(C(CN(C)C)C2(O)CCCCC2)cc1 (centres undefined) [Venlafaxine],neuronal differentiation score,[1]; library: Prestwick,inactive: 0
same,dopaminergic neuron differentiation score,[2]; library: Prestwick,inactive: 0
O=c1c2ccccc2[se]n1-c1ccccc1,neuronal differentiation score,[1]; library: Spectrum,inactive: 0
same,dopaminergic neuron differentiation score,[2]; library: Spectrum,inactive: 0
CCNC(=O)[C@H]1O[C@@H](n2cnc3c(N)ncnc32)[C@H](O)[C@@H]1O,neuronal differentiation score,[1]; library: Tocriscreen,inactive: -3
same,dopaminergic neuron differentiation score,[2]; library: Tocriscreen,inactive: 0
N[C@@H](Cc1ccc(N(CCCl)CCCl)cc1)C(=O)O [Melphalan],neuronal differentiation score,[1]; library: LOPAC,inactive: 0
same,dopaminergic neuron differentiation score,[2]; library: LOPAC,inactive: 0
CN1C2CC(=O)CC1C(O)C2 (centres undefined),neuronal differentiation score,[1]; library: Spectrum,inactive: 0
same,dopaminergic neuron differentiation score,[2]; library: Spectrum,inactive: 0
"C[N+]1(C)[C@@H]2CC(OC(=O)[C@H](CO)c3ccccc3)C[C@H]1[C@@H]1O[C@@H]12 (single isomer, unassigned; (-)) [(-)-Scopolamine methyl nitrate]",neuronal differentiation score,[1]; library: LOPAC,inactive: 0
same,dopaminergic neuron differentiation score,[2]; library: LOPAC,inactive: 0

# Some of the entries so far, tab-delimited:
compound	measurement	setting	value
Clc1cc(I)cc(Cl)c1NC1=NCCN1 [p-Iodoclonidine hydrochloride]	neuronal differentiation score	[1]; library: LOPAC	inactive: 0
same	dopaminergic neuron differentiation score	[2]; library: LOPAC	inactive: 0
